Measured values reported in article PMC10946950, “Stretching the Bisalkyne Raman Spectral Palette Reveals a New Electrophilic Covalent Motif” (Chemistry (Weinheim an Der Bergstrasse, Germany), 2023).
Some ranges recur; such a range may be that of the whole group of compounds.

What was measured:
ES2 cells = assay: SRS imaging of cellular uptake and localization; assay type: cell-based, Human; details: for intracellular localization/distribution (SRS images): 100 μM compound
Procedure: Figure 4 SRS images of ES2 cells treated with a) BADY, b) 3 f and c) 3 a were taken at three different wavenumbers: CH3, proteins 2942 cm^−1 – grey scale; CH2, lipids 2866 cm^−1 – magenta; and C≡C, alkyne, images taken at 2215 cm^−1/2208 cm^−1 with an off‐resonance image taken ∼30 cm^−1 away subtracted – cyan hot. Cells were treated with 100 μM compound for 1 h. Scale bars: 10 μm.
Figure 5 SRS images of ES2 cells treated with a) Lyso‐Het‐DY (300 μM, 1 h) and b) LD‐Het‐DY (10 μM, 24 h). Images were taken at: CH3, proteins 2942 cm^−1 — grey scale; CH2, lipids 2866 cm^−1 — magenta and C≡C, alkyne, images taken at 2208/2215 cm^−1 with an off‐resonance image taken ∼30 cm^−1 away subtracted – cyan hot. Scale bars: 10 μm.
(§1) 4. Spontaneous Raman Spectroscopy
(§2) Spontaneous Raman spectra of individual compounds in DMSO (10 mM) or in combination with internal standard EdU (100 mM)
(§3) were acquired from sample droplets. The raw spectra were baseline corrected using the Zhangfit method, and further smoothened
(§4) and normalized using Origin 9.6.0.172 (OriginLab Corporation).[57]
(§5) Figure S1. (a) Full spontaneous Raman spectra (500 cm-1 to 3000 cm-1) of DMSO solutions of Het-DY (10 mM) with internal standard EdU (100 mM).
(§6) Tags 3i, 3l and 3n were excluded because of insufficient pure fractions available to acquire good signal intensities. Raman signal of EdU (2112 cm-1)
(§7) was normalized to 1; (b) Zoom in of (a) between 2080 cm -1 and 2260 cm-1 highlighting the relative intensities of tags 3a-3h, 3j, 3k and 3m compared
(§8) to EdU and to each other.
(§9) 5. Sample Preparation for SRS microscopy, Image Acquisition and Analysis
(§10) Cell Culture: Human ovarian cancer cell line ES2 or HeLa cells was purchased from the American Type Culture Collection, and cells
(§11) maintained in a humidified incubator at 37°C and 5% CO2 in Dulbecco’s Modified Eagle Medium (high glucose, Pyruvate, L-
(§12) Glutamine) (SIGMA, cat#D6429) and 10% FCS. Cells were plated into Fluorodish Cell Culture Dishes (World Precision Instruments,
(§13) cat#FD-35-100) for 24 hours before treatment with compound. Details of the dosing concentrations and dosing times are provided in
(§14) the figure legends. For multi-modal imaging experiments cells were treated with either Wheat Germ Agglutinin Alexa Fluor 594
(§15) Conjugate (ThermoFisher cat#W11262), LysoTracker Red DND-99 (ThermoFisher cat#L7528), MitoTracker Red CMXRos
(§16) (ThermoFisher cat#M7512) or Nile Red (Merck cat#72485) made up as per instructions with matching SRS probe. BADY and Het-
(§17) DY probes were made up in DMSO. All dilutions were made in culture media and cells imaged live.
(§18) Two-photon fluorescence and stimulated Raman scattering (SRS) microscopy. Images were acquired using a custom-built
(§19) multi-modal microscope setup. A picoEmerald S (APE, Berlin, Germany) laser provided both a tunable pump laser (700–990 nm, 1.6
(§20) ps, 80 MHz repetition rate) and a spatially and temporally overlapped Stokes laser (1031 nm, 1.8 ps, 80 MHz repetition rate). The
(§21) output beams were inserted into the scanning unit of an Olympus FV1000MPE microscope using a series of dielectric mirrors and a
(§22) 4× lens based beam -expanding module. The resulting 3.4 mm beams were expanded by a furthe r 3.6 lens within the microscope
(§23) and directed into an Olympus XLPL25XWMP N.A. 1.05 objective lens using a short -pass 690 nm dichroic mirror (Olympus).
(§24) Backscattered emission signals from two -photon fluorescence was separated from any reflected excitation light using a short-pass
690 nm dichroic mirror and IR cut f ilter (Olympus). […]

[1] = Spontaneous Raman spectroscopy, relative intensity compared to internal standard EdU; assay type: physicochemical; details: 10 mM DMSO sample solutions vs internal standard EdU (100 mM)
Procedure: as §1, §2, §3, §4, §5, §6, §7, §8, §9, §10, §11, §12, §13, §14, §15, §16, §17, §18, §19, §20, §21, §22, §23, §24
690 nm dichroic mirror and IR cut f ilter (Olympus). A series of filters and dichroic mirrors (FF552-Di02, and FF440/520-Di01
(Semrock) and HQ610/75m (Chroma) were then used to deconvolve the different emission signals onto an available photo-multiplier
For SRS measurements, the Stokes beam was modulated with a 20 MHz EoM built into the picoEmerald S. Forward scattered light
was collected by a 25× Olympus XLPL25XWMP N.A. 1.05 objective lens and Stokes light was removed by filtering with an
ET890/220m filter (Chroma). A telescope focused the light onto an APE silicon photodiode connected to an APE lock in amplifier with
the time constant set to 20 µs The lock in amplifier signal was fed into an Olympus FV10-Analog unit. Images at different wavelengths
were acquired sequentially by changing the pump laser wavelength. Fluorescence images where acquired at the alkyne wavelength
pump tuning with a 4 µs pixel dwell time whilst SRS images were recorded with a 20 µs pixel dwell. Laser powers after the objective
(1 picture or pasted object on this page, not shown here)

Compound	Relative Imaging Intensity Compared to EdU [RIE] [1]	further results
O=C(O)CCCCCCCCCCNC(=O)c1ccc(C#CC#Cc2cccnc2)cc1 [8 f]		intracellular localization (SRS images) (ES2 cells; 10 μM, 24 h): lipid rich regions
Cn1cncc1C#CC#Cc1ccc(C(=O)NCCN2CCOCC2)n1C [8 a]		intracellular localization (SRS images) (ES2 cells; 300 μM, 1 h): enriched in lysosomal
COC(=O)c1ccc(C#CC#Cc2cccnc2)cc1 [3 f]	++ (++ and+represent RIE ranges of 20–30 and 10–20, respectively)	intracellular localization/distribution (SRS images) (ES2 cells; 1 h): unchanged compared to BADY
COC(=O)c1ccc(C#CC#Cc2cncn2C)n1C [3 a]	+ (++ and+represent RIE ranges of 20–30 and 10–20, respectively)	intracellular localization/distribution (SRS images) (ES2 cells; 1 h): predominantly in the cytoplasm
COC(=O)c1ccc(C#CC#Cc2nccs2)cc1 [3 d]	++ (++ and+represent RIE ranges of 20–30 and 10–20, respectively)	
C(C#Cc1ccccc1)#Cc1ccccc1 [BADY, reference compound]	++ (++ and+represent RIE ranges of 20–30 and 10–20, respectively)	intracellular localization/distribution (SRS images) (ES2 cells; 1 h): accumulates in lipid droplets
COC(=O)c1ccc(C#CC#Cc2cscn2)cc1 [3 c]	+ (++ and+represent RIE ranges of 20–30 and 10–20, respectively)	
COC(=O)c1ccc(C#CC#Cc2cncn2C)cc1 [3 b]	+ (++ and+represent RIE ranges of 20–30 and 10–20, respectively)	
COC(=O)c1ccc(C#CC#Cc2ccccn2)cc1 [3 e]	++ (++ and+represent RIE ranges of 20–30 and 10–20, respectively)	
COC(=O)c1ccc(C#CC#Cc2ncccn2)nc1 [3 j]	+ (++ and+represent RIE ranges of 20–30 and 10–20, respectively)	
COC(=O)c1ccc(C#CC#Cc2cnccn2)nc1 [3 m]	+ (++ and+represent RIE ranges of 20–30 and 10–20, respectively)	
COC(=O)c1ccc(C#CC#Cc2ccncc2)cc1 [3 g]	++ (++ and+represent RIE ranges of 20–30 and 10–20, respectively)	
COC(=O)c1ccc(C#CC#Cc2ccccc2)nc1 [3 h]	+ (++ and+represent RIE ranges of 20–30 and 10–20, respectively)	
